According to publication PMC7819943, “Rice protein-binding microarrays: a tool to detect cis-acting elements near promoter regions in rice”:
The list shows a part of the results.

The chains behind the UniProt entries cited, without tags or fusion partners.
UniProt Q0JBA9, entry or part of it: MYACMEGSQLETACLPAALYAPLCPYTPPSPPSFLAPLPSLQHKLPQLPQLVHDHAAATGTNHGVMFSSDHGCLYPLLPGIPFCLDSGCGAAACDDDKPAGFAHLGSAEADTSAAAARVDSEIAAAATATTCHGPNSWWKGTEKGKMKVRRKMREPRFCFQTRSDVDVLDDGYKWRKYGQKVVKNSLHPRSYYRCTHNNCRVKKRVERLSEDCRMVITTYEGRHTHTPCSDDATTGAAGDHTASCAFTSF

molecular target: OsWRKY34 (Oryza sativa, UniProt Q0JBA9 1-250); test: protein-binding microarray (RPBM); PBS, 2% BSA, 51.3 ng/ul salmon testes DNA, 50 uM zinc acetate, 200 nM TF, 25 C, 1 h; high values mean tight binding; conditions: protein: recombinant; tags: N-terminal polyhistidine and DsRed monomer fusion (pET32a); label: CyDye5-dUTP incorporated in the synthesized complementary strand; 3' TTTTT single-stranded linker to array surface; dsDNA, one strand shown
Summary of the method: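 Transcription factors were made in E. coli BL21-CodonPlus as N-terminal fusions to a polyhistidine tag and DsRed, then purified on Ni–NTA. After primer extension with Cy5-dUTP and blocking with 2% BSA, a custom Agilent array was exposed for 1 h at 25 °C to 200 nM protein in PBS, 2% BSA, salmon testes DNA and 50 µM zinc acetate. Washed arrays were scanned on an Axon 4000B, and the binding signal is per-feature fluorescence intensity in arbitrary units.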

Sequence	binding signal
GACATATTTTTTTCTCCTCTCTTTTTTCATTTGTTTTTTTCGGAGTCACCTAGTGCAG	11600 fluorescence intensity (a.u.)
CTAATCTTGCTAGCTAGTACCGTACCCAAATCACGGAGATCGGAGTCACCTAGTGCAG	8260 fluorescence intensity (a.u.)
AGGGTGGGCCAATTAGTTGCGTCGAAGCAAAGATTTTTTTCGGAGTCACCTAGTGCAG	8920 fluorescence intensity (a.u.)
CCTAGCATCCGCGCCGCCCATACACCCATCTTACCGATCTCGGAGTCACCTAGTGCAG	8330 fluorescence intensity (a.u.)
TCGCCAACTACTTATTTTGCAATTCCTTTTTAGCCAAAACCGGAGTCACCTAGTGCAG	10800 fluorescence intensity (a.u.)
TGCTGTTTGGTAGCCAACTTATAAAGGTTTTTTCAGCTTCCGGAGTCACCTAGTGCAG	9020 fluorescence intensity (a.u.)
CCCACGCAAGCACGCACTCGTCTTAGCAGTCCTCGAGCTTCGGAGTCACCTAGTGCAG	9400 fluorescence intensity (a.u.)
ATTGATTGATTGGTTGGTTGGTTGGTTGGGTTGATCGATGCGGAGTCACCTAGTGCAG	20300 fluorescence intensity (a.u.)
TTGCTCACTTGTTCTGTTCTTGCCCGGTCAACTTGCGACGCGGAGTCACCTAGTGCAG	8760 fluorescence intensity (a.u.)
GGCGTTGACGTGGCGATGTTGACCTAGTATTTGTCCCACGCGGAGTCACCTAGTGCAG	8350 fluorescence intensity (a.u.)
TTTATTTTCTAAAATTTTATACCCTGCCAATTCACGTGTTCGGAGTCACCTAGTGCAG	8870 fluorescence intensity (a.u.)
TATATATATATATATATATATAGTAAAAGTAACTTACGTACGGAGTCACCTAGTGCAG	10600 fluorescence intensity (a.u.)
TTCTTGGGGCTGGAGAGGGTGGGGATGGTGGTGCGGATGCCGGAGTCACCTAGTGCAG	15000 fluorescence intensity (a.u.)
CTACACCCCACACCGCTTCCACGTACCTTGTATTTATCATCGGAGTCACCTAGTGCAG	15200 fluorescence intensity (a.u.)
GGTAGGGTTGGGATGGGATGTGCAAGTAACCCGGGTGGATCGGAGTCACCTAGTGCAG	10000 fluorescence intensity (a.u.)
CGACGGAGAAATTATTTTCTATTTTTTTGTTTTTGTTTCCCGGAGTCACCTAGTGCAG	10900 fluorescence intensity (a.u.)
CTCTCCAGTTGCTTCCATTTCCAGAGATATGCCATCGTTGCGGAGTCACCTAGTGCAG	10100 fluorescence intensity (a.u.)
ACCCTTTCCCATTTACACCCGCCACCTAGCTTAAACCCATCGGAGTCACCTAGTGCAG	8960 fluorescence intensity (a.u.)
GCCTCCGCCGTCGAACTTTTCCCCGCCGACCGACACCCTTCGGAGTCACCTAGTGCAG	11200 fluorescence intensity (a.u.)
CCCAATCTCTGCAACTGCACCATGATCCACTAGTAGTTATCGGAGTCACCTAGTGCAG	8110 fluorescence intensity (a.u.)
GATCACCACCACCGTGAGTTCGGAGTTTTCTTTGTTTTTTCGGAGTCACCTAGTGCAG	10000 fluorescence intensity (a.u.)

Sequence	binding signal
CGTCCGATCCACCGATTTGCCACGAATTGCTGTTATTGTTCGGAGTCACCTAGTGCAG	10500 fluorescence intensity (a.u.)
ACTGCTATTGTTGTTCTTACCATCACAATCTGTTTTTCTTCGGAGTCACCTAGTGCAG	13300 fluorescence intensity (a.u.)
ACTGCCGCCGCCGCCGCCACTCCATCCACTCTGCCACCGCCGGAGTCACCTAGTGCAG	8030 fluorescence intensity (a.u.)
TACCGTTCATCCACGTCTCATCTAATCTCATCCGTCCGCTCGGAGTCACCTAGTGCAG	8540 fluorescence intensity (a.u.)
CCCTACTAGAATATATGATCTCGCCTCATCTTTTATTTGCCGGAGTCACCTAGTGCAG	8150 fluorescence intensity (a.u.)
CATCTCCTCGCATGCAACCACGTACACCTCCTCGTCTATGCGGAGTCACCTAGTGCAG	8400 fluorescence intensity (a.u.)
GGGCGTCGAGCGGGTTGGAGGGTTTCTTGAGCGGGTTCGCCGGAGTCACCTAGTGCAG	9020 fluorescence intensity (a.u.)
GCAAACATCATCTCTTTTTTCTGTATCTGCTCTATTTACACGGAGTCACCTAGTGCAG	8780 fluorescence intensity (a.u.)
CTCCACGCGCACCTCGCCGCGTCCCTGATCTGATTGATTGCGGAGTCACCTAGTGCAG	10200 fluorescence intensity (a.u.)
GGCTCTTTTAAGTCTTGACAGACGACGGCAGCAGTTTTTCCGGAGTCACCTAGTGCAG	8760 fluorescence intensity (a.u.)
GATGACTTGCGATGTCGCCTTTTGATGTTTTTATGCATGCCGGAGTCACCTAGTGCAG	11200 fluorescence intensity (a.u.)
CTATAATCCGCTTTCCACATAATGTCACGGTCTCCAATCTCGGAGTCACCTAGTGCAG	8230 fluorescence intensity (a.u.)
GAGCTCGGCGAAATCGATCTGTGGGAGGGAGGGCGGCGAGCGGAGTCACCTAGTGCAG	9110 fluorescence intensity (a.u.)
TGGATACTTGGCGTTGGTGGGCTGGTTCTTATTGGATACGCGGAGTCACCTAGTGCAG	8120 fluorescence intensity (a.u.)
ACCCGCGCCTCTCGGAGTCCGACTCTATCCACTCCCGCGACGGAGTCACCTAGTGCAG	8030 fluorescence intensity (a.u.)
TGGCTGGTGTTTTAGGCTAGGGATGTCCTTTTCGCTTACCCGGAGTCACCTAGTGCAG	8100 fluorescence intensity (a.u.)
CCACCACCGCCACCGCCACCGCCACCGCCCCTACACCTGCCGGAGTCACCTAGTGCAG	9350 fluorescence intensity (a.u.)
CACTCCAACCAAAGTGACCGTTGCAACCTCATCTCCGCTCCGGAGTCACCTAGTGCAG	9740 fluorescence intensity (a.u.)
AACCTCACCGCAAACCTCACCTGGTTCTTCTTCCTCGCATCGGAGTCACCTAGTGCAG	10100 fluorescence intensity (a.u.)
AGCTTAATGTTCACTTGACTAATTAGTTCATTATTCCACACGGAGTCACCTAGTGCAG	8940 fluorescence intensity (a.u.)
TGTTTTCTCTGAATTGGTGTGTGTGTGTTCAGTGGCAAAGCGGAGTCACCTAGTGCAG	8080 fluorescence intensity (a.u.)

For reference, some entries already given.
Sequence	binding signal
ACTGCCGCCGCCGCCGCCACTCCATCCACTCTGCCACCGCCGGAGTCACCTAGTGCAG	8030 fluorescence intensity (a.u.)
TACCGTTCATCCACGTCTCATCTAATCTCATCCGTCCGCTCGGAGTCACCTAGTGCAG	8540 fluorescence intensity (a.u.)
